Among the data in publication PMC5578999, “Novel quinolone chalcones targeting colchicine-binding pocket kill multidrug-resistant cancer cells by inhibiting tubulin activity and MRP1 function” (Scientific Reports, 2017) are IC50 values, retold here.

What all share (format): cell-based
One test has as its system SW-1271. Put plainly: SRB cell viability. Particulars: SW1271, Table S1. The protocol: (§1) Cell line authentication was carried out by Genetica DNA
(§2) Laboratories (Burlington, NC) using a short tandem repeat (STR) profiling method (March 2015; […]
(§3) Cell viability, com binational i ndex and cell synchronization
(§4) Cell viability and proliferation were ex amined using a s ulforhodamine B (SRB) assa y as described previousl y (Hu et al., 2008). IC 50 values were calculat ed from si gmoidal dose-response cu rves gen erat ed b y at least two indepen dent ex periments , with each quadruplicate samples, using GraphPad Prism v.5.04 software (GraphPad Software, Inc, La J olla, CA). […]
(§5) 737/ABT-199 w ere us ed at or below IC 50 . […]
(§6) previousl y described (Chou, 2006). […]
(§7) (Romero and Lee, 2008), and the cells were r eleas ed in to complete medium in the absence (sham) or presence of compound(s). […]

For a further test, the system named is KB-C-1. Put plainly: SRB cell viability, parental cells. As to conditions: Homo sapiens, KBC-1, Table S1. The protocol: (§8) human epidermoid carcinoma cell line and KB-C2, an isogenic MDR1- overexpressing drug-resistant cell line, were kindl y provided b y Dr. Amit K Tiwari, the Universit y of Toledo, OH. […]
as §1, §2, §3, §4, §5, §6, §7

For a further test, the system named is KB-C-2. Put plainly: SRB cell viability, MDR1-overexpressing cells. Particulars: Homo sapiens, KB-C2, Table S1. The protocol: as §8, §1, §2, §3, §4, §5, §6, §7
In a further test the test system is H69AR. The experiment in a line: SRB cell viability, multidrug-resistant cells. Particulars: Homo sapiens, Table S1. The procedure: as §1, §2, §3, §4, §5, §6, §7

Broadly, the IC50 is the midpoint of a concentration-inhibition curve. Consider `COc1cc2c(c(OC)c1OC)-c1ccc(OC)c(=O)cc1[C@@H](NC(C)=O)CC2` [colchicine], for which the IC50 in the test with SW-1271 was 4.84 ± 0.8 nM; in the test with KB-C-1 it was 5.36 ± 0.54 nM; with KB-C-2, 83.5 ± 7.22 nM; in the test with H69AR it was 23 ± 3.63 nM.
